Experiment in all cases: two-hybrid; BACTH (Euromedex) in E. coli BTH101; C- and N-terminal fusions to T25 or T18; beta-galactosidase assays (Miller units) from three colonies, grown over night at 30 °C or 2 d at 20 °C
Assay [1] addresses T1, HmpFSyc (Synpcc7942_1139) (Synechococcus elongatus PCC 7942) (UniProt Q31P50).
T1 sequence: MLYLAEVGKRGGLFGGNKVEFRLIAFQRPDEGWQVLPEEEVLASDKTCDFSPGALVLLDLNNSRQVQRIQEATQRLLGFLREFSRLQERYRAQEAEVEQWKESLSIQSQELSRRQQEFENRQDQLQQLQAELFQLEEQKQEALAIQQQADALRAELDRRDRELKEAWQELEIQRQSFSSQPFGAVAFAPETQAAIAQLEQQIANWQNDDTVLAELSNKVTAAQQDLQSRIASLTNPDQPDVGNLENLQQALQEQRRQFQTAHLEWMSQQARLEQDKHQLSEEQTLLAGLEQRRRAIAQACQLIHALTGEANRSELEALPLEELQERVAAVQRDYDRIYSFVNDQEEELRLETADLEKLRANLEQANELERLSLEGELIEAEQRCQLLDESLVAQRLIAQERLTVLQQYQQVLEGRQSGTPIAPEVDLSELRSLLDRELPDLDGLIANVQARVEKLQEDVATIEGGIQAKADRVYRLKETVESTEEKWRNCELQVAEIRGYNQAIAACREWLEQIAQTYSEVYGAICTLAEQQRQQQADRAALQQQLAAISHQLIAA

Chains of the proteins cited; added tags and fusions are not shown. Lines headed by an entry give the natural chain unless they say otherwise; changes in a name come on top.
UniProt P72839: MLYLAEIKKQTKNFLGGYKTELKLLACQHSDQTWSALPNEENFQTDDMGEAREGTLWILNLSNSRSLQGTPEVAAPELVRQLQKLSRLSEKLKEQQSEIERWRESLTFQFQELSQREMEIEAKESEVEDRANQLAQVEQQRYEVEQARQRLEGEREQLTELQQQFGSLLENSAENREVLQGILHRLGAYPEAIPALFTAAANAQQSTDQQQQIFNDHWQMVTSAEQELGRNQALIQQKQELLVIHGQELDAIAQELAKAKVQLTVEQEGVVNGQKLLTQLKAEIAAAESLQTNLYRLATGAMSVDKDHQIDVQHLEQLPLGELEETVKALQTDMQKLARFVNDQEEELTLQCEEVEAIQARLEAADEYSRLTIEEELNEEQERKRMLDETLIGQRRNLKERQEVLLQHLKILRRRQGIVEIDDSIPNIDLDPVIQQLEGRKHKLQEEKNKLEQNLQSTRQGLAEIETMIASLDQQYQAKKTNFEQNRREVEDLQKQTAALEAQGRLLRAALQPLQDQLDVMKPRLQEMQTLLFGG

Assay [2] has as its target HmpFSyn (Slr1301) (Synechocystis sp. PCC 6803) (UniProt P72839).
The next assay has as its target HmpFAna.

Results are given in words; binding and its absence hold for the method and conditions named. Binding can be weak; no strength is given.

For the molecule HmpFSyn (Slr1301) (from UniProt P72839), the binding result in assay [1] is reported as “binds”. Regarding Slr7083 (from UniProt Q6ZEB5), the binding entry in assay [2] is “binds”.

B1: HmpFSyc (Synpcc7942_1139) (protein, UniProt Q31P50 1-556)
chain: MLYLAEVGKRGGLFGGNKVEFRLIAFQRPDEGWQVLPEEEVLASDKTCDFSPGALVLLDLNNSRQVQRIQEATQRLLGFLREFSRLQERYRAQEAEVEQWKESLSIQSQELSRRQQEFENRQDQLQQLQAELFQLEEQKQEALAIQQQADALRAELDRRDRELKEAWQELEIQRQSFSSQPFGAVAFAPETQAAIAQLEQQIANWQNDDTVLAELSNKVTAAQQDLQSRIASLTNPDQPDVGNLENLQQALQEQRRQFQTAHLEWMSQQARLEQDKHQLSEEQTLLAGLEQRRRAIAQACQLIHALTGEANRSELEALPLEELQERVAAVQRDYDRIYSFVNDQEEELRLETADLEKLRANLEQANELERLSLEGELIEAEQRCQLLDESLVAQRLIAQERLTVLQQYQQVLEGRQSGTPIAPEVDLSELRSLLDRELPDLDGLIANVQARVEKLQEDVATIEGGIQAKADRVYRLKETVESTEEKWRNCELQVAEIRGYNQAIAACREWLEQIAQTYSEVYGAICTLAEQQRQQQADRAALQQQLAAISHQLIAA
With B1, the binding result with HmpFAna is on record as “binds”.

For the origin of these results see PMC7002697.
